Assay results taken from paper PMC12513065.
These are yes or no findings as the source states them, for the method shown. Binding seen in cells or lysates may run through a third protein. Some binding calls cover weakened binding; strength is not graded here. One block for each molecule: values may come before it.

Protein sequences, listed by entry. Tags and fused reporters are not part of them.
UniProt P18669: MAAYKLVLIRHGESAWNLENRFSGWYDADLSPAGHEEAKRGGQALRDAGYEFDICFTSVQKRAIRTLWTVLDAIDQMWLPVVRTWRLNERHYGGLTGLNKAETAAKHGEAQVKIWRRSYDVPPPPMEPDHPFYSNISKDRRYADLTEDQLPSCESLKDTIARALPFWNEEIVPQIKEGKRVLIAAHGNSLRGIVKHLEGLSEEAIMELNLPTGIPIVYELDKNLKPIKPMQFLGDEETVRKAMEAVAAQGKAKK
UniProt P23743: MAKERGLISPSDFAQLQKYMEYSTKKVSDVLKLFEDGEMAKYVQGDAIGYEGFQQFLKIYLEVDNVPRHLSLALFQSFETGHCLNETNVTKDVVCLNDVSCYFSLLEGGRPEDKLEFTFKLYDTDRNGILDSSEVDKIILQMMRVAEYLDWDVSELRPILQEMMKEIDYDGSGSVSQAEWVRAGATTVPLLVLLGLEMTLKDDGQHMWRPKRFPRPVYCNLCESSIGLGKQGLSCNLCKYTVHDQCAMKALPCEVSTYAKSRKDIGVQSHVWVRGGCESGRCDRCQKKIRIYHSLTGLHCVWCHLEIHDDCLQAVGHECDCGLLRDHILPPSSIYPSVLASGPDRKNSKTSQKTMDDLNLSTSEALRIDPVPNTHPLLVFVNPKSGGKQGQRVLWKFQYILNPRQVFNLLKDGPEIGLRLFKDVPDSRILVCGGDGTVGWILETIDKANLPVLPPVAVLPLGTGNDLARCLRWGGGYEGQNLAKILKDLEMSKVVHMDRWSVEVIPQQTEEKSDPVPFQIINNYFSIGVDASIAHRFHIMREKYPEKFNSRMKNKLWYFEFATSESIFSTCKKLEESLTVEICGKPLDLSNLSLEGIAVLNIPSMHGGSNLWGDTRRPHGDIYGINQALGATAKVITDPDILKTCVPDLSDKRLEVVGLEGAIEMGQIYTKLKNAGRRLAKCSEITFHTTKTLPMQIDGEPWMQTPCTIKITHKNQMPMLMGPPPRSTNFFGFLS
UniProt Q13574: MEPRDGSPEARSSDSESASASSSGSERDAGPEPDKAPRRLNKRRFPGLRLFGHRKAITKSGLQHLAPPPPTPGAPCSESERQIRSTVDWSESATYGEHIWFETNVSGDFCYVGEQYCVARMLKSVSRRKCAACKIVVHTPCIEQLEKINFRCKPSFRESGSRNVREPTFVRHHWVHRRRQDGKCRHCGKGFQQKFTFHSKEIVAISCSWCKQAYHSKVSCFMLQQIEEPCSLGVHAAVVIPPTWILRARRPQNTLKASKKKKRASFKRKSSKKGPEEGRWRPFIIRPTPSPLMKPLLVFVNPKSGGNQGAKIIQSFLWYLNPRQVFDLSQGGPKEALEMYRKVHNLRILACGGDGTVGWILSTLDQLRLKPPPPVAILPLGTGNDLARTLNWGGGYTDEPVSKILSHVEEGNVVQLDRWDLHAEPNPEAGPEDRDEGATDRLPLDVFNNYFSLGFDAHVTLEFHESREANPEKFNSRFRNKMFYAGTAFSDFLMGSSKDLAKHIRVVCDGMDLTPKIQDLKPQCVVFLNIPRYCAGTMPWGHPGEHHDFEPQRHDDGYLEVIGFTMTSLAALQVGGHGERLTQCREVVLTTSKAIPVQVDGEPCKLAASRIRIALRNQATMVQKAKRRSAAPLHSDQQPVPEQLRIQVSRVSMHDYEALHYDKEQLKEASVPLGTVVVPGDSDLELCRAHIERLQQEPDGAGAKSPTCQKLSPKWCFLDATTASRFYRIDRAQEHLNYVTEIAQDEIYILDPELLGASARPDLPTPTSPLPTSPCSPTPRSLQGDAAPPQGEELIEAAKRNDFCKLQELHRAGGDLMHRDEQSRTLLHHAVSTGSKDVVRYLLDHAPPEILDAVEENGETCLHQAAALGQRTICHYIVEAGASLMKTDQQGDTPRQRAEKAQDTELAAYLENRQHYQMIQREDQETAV

Biological target: 6 × His-tagged phosphoglycerate mutase 1 (PGAM1) (human) (UniProt P18669)
Experiment: pull-down; about 50 μg purified 6 × His-PGAM1 held on Ni-NTA agarose beads, incubated with 300 μg HEK293T cell lysate (Pierce IP Lysis Buffer) for 2 h at 4 °C; washed five times with 20 mM Tris-HCl pH 7.5, 300 mM NaCl, 0.1 % Tween-20; eluates blotted for endogenous DGKα, δ, ζ; Ni-NTA beads without PGAM1 as control; only the target purified

binding: no binding
Molecule: diacylglycerol kinase α (DGKα) (from UniProt P23743 1-735) (enzyme)

binding: binds
Molecule: diacylglycerol kinase ζ (DGKζ) (from UniProt Q13574 1-928) (enzyme)

binding: binds
B1: diacylglycerol kinase δ (DGKδ) (enzyme, UniProt Q16760 1-1214)
chain: MAAAAGAPPPGPPQPPPPPPPEESSDSEPEAEPGSPQKLIRKVSTSGQIRQKTIIKEGMLTKQNNSFQRSKRRYFKLRGRTLYYAKTAKSIIFDEVDLTDASVAESSTKNVNNSFTVITPCRKLILCADNRKEMEDWIAALKTVQNREHFEPTQYSMDHFSGMHNWYACSHARPTYCNVCREALSGVTSHGLSCEVCKFKAHKRCAVRATNNCKWTTLASIGKDIIEDADGIAMPHQWLEGNLPVSAKCTVCDKTCGSVLRLQDWRCLWCKAMVHTSCKESLLTKCPLGLCKVSVIPPTALNSIDSDGFWKASCPPSCTSPLLVFVNSKSGDNQGVKFLRRFKQLLNPAQVFDLMNGGPHLGLRLFQKFDTFRILVCGGDGSVGWVLSEIDSLNLHKQCQLGVLPLGTGNDLARVLGWGSACDDDTQLPQILEKLERASTKMLDRWSVMAYEAKLPRQASSSTVTEDFSEDSEVQQILFYEDSVAAHLSKILTSDQHSVVISSAKVLCETVKDFVARVGKAYEKTTESSEESEVMAKKCSVLKEKLDSLLKTLDDESQASSSLPNPPPTIAEEAEDGDGSGSICGSTGDRLVASACPARPQIFRPREQLMLRANSLKKAIRQIIEHTEKAVDEQNAQTQEQEGFVLGLSESEEKMDHRVCPPLSHSESFGVPKGRSQRKVSKSPCEKLISKGSLSLGSSASLPPQPGSRDGLPALNTKILYPNVRAGMSGSLPGGSVISRLLINADPFNSEPETLEYYTEKCVMNNYFGIGLDAKISLDFNNKRDEHPEKCRSRTKNMMWYGVLGTKELLHRTYKNLEQKVLLECDGRPIPLPSLQGIAVLNIPSYAGGTNFWGGTKEDDTFAAPSFDDKILEVVAVFGSMQMAVSRVIRLQHHRIAQCRTVKISILGDEGVPVQVDGEAWVQPPGYIRIVHKNRAQTLTRDRAFESTLKSWEDKQKCELPRPPSCSLHPEMLSEEEATQMDQFGQAAGVLIHSIREIAQSHRDMEQELAHAVNASSKSMDRVYGKPRTTEGLNCSFVLEMVNNFRALRSETELLLSGKMALQLDPPQKEQLGSALAEMDRQLRRLADTPWLCQSAEPGDEESVMLDLAKRSRSGKFRLVTKFKKEKNNKNKEAHSSLGAPVHLWGTEEVAAWLEHLSLCEYKDIFTRHDIRGSELLHLERRDLKDLGVTKVGHMKRILCGIKELSRSAPAVEA
